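Viability assay of Plasmodium falciparum sporozoites; the read-out is not stated. The concentration is filed as 10 mM, unlikely as a test dose, so the dose is not known. The record gives no direction; compounds that gave an IC50 in retests scored well above the rest, so higher reads as lower viability. Strong results were mostly tested again. About 34,000 compounds were tested under these conditions; 0.84% (about 280) showed 50% or more at least once.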

Results are given as percent effect.
How 0% and 100% were set is not recorded. Most values in the screen are low, and negative values occur.
This is an unselected part of the compounds tested.
Two or more numbers in one place are separate tests of the same structure; such repeats can differ widely.

| Compound | percent effect |
|---|---|
| `Cc1noc(C)c1CN1CCn2c(COC(C)C)nnc2C1` | 0.5963 |
| `COC(=O)NCc1cc2n(n1)CCCN(C(C)=O)C2` | 1.767 |
| `O=C(NCc1cc[nH]n1)NCC(O)COc1cccc(F)c1` (stereo not drawn) | 8.333 |
| `C[C@@H]1CN(CCc2ccccc2)C[C@]12CCN(CC(=O)N(C)C)C2=O.O=C(O)C(F)(F)F` | 6.918 |
| `CC(=O)N1CCC2(CC1)CC(NC(=O)N(C)C)c1cc(C)ccc12` (stereo not drawn) | 2.024 |
| `CC(C)N(C)Cc1cnc2n1CCN(Cc1ccsc1)C2.O=C(O)C(F)(F)F.O=C(O)C(F)(F)F` | 2.059 |
| `CC(C)c1nnc(CN2CCC3(CC2)Nc2ccccc2NC3=O)o1` | -1.776 |
| `CC(=O)N1CCC2(CC1)CC(Oc1ccccc1)CO2` (stereo not drawn) | 7.016 |
| `N[C@@H]1CCCN(C(=O)Cc2c[nH]c3ccccc23)[C@H]1c1ccccc1F` | 13.14 |
| `[H][C@@]12CN(Cc3cnn(C)c3)C[C@@]1([H])N(Cc1ccncc1)C(=O)CO2` | -10.85 |
| `CC(C)C(Sc1nnnn1C1CC1)C(=O)NCc1ccccc1` (stereo not drawn) | -3.839 |
| `CCc1ncnc2c1CCN(S(=O)(=O)CC)CC2` | 13.67 |
| `c1ccc(N2CCCC3(CCN(Cc4nccs4)C3)C2)nc1` (stereo not drawn) | 7.535 |
| `CS(=O)(=O)NCc1cnc2n1CCN(Cc1ccsc1)CC2.O=C(O)C(F)(F)F` | 17.68 |
| `CCn1nc2c(cc1=O)CN(c1ncnc3ccsc13)CC2` | -0.3911 |
| `CCc1ccccc1NC(=O)N1CCn2cnc(COC)c2C1` | -10.38 |
| `[H][C@]12CCCN(S(=O)(=O)c3cccc(F)c3)[C@@]1([H])CN(C(=O)C1CC1)C2` | 13.73 |
| `CS(=O)(=O)N1CCN(C(=O)c2[nH]c3ccc(Cl)cc3c2Cl)CC1` | -2.971 |
| `NCCC(=O)NCC1(O)CCCN(c2ccnc3cccnc23)C1` (stereo not drawn) | 2.115 |
| `Cn1cc(C[C@H]2[C@H](O)CCN2C(=O)c2ccsc2)cn1` | 0.2577 |
| `Cn1ncc2c1C(COCC1CC1)CN(S(C)(=O)=O)C2` (stereo not drawn) | 1.347 |
| `O=C(O)C(F)(F)F.[H][C@]12CCC[C@@]1(COc1ccccn1)CN(C(=O)c1c(C)noc1C)C2` | -11.07 |
| `CC(C)c1nc(C2CCCN(c3ncccn3)C2)no1` (stereo not drawn) | 7.828 |
| `CC(C)OCCOCc1cccc(NC(=O)N2CCCC(O)C2)c1` (stereo not drawn) | -20.57 |
| `COc1ccc(CCNC(C)c2ccc3[nH]c(=O)[nH]c3c2)cc1OC` (stereo not drawn) | 12.15 |
| `CCc1nc(CN2CCCN(C(=O)CC3CCCC3)CC2)cs1` | 8.626 |
| `Cc1oncc1NS(=O)(=O)c1c[nH]c2ncccc12` | 0.7667 |
| `CC(NC(=O)NCc1ccccn1)c1ccc2c(c1)CCC(=O)N2` (stereo not drawn) | 11.69 & 3.257 & 19.13 |
| `c1ccc2cc(OCCN3CCOC(Cn4cncn4)C3)ccc2c1` (stereo not drawn) | -21 |
| `O=C(O)C(F)(F)F.[H][C@@]12COC[C@@H](C(=O)N3CCCCO3)[C@]1([H])CN(Cc1c(C)noc1C)C2` | -7.302 |
| `O=C(Nc1cc(C(F)(F)F)c[nH]c1=O)C1CCCN1` (stereo not drawn) | -12.55 |
| `[H][C@@]12CCCO[C@]1([H])[C@H](NS(C)(=O)=O)CN(Cc1cccc(C)n1)C2` | -0.1082 |
| `CCN1CCC(CC(=O)N2CCCCC2CCn2cccn2)CC1` (stereo not drawn) | -22.57 & -27.23 |
| `Cn1cc(CNC2CC3(CCN(S(C)(=O)=O)CC3)c3ccccc32)cn1.O=C(O)C(F)(F)F` (stereo not drawn) | 11.31 |
| `O=C(O)C(F)(F)F.[H][C@@]12COC[C@]1(CNC(=O)N1CCCC1)CN(Cc1cc(C)on1)C2` | 12.29 |
| `Clc1ccc(OCCCN2CCN(c3cnccn3)CC2)cc1` | -11.56 |
| `O=C(O)C(F)(F)F.[H][C@@]12CCN(c3ccncn3)C[C@]1([H])O[C@@H](C(=O)NCc1ccco1)C2` | 6.169 |
| `CCOc1ccc(CN[C@@H]2COC[C@H]2c2ccc(F)cc2)cc1.O=C(O)CC(O)(CC(=O)O)C(=O)O` | 4.521 |
| `CNS(=O)(=O)c1ccc(C(=O)N2CCCC2c2cnn(C)c2)o1` (stereo not drawn) | 4.645 |
| `Cc1n[nH]c(=O)c2c(NC(=O)CN3CCC(C)CC3)oc(C)c12` | -9.985 & 10.76 & -12.2 |
| `CC(C)c1nccn1C1CCCN(C(=O)c2cc(C3CC3)on2)C1` (stereo not drawn) | 3.142 |
| `Cc1cc(C)n(-c2ccc(C(C)NS(N)(=O)=O)cc2)n1` (stereo not drawn) | -15.24 |
| `O=C(O)C(F)(F)F.[H][C@]12OCCC[C@]1([H])N(C(=O)c1ccc(C)o1)C[C@H]2OCc1cccnc1` | -11.26 |
| `Cc1cccc(CN2CCCn3c(nnc3CN3CCCC3=O)C2)n1.O=C(O)C(F)(F)F` | -1.313 |
| `COCCN1CCN(CC2CCCCO2)CC1` (stereo not drawn) | 6.863 |
| `Cc1cccc(CN2CCCC23CCNC3)n1` (stereo not drawn) | 16.02 |
| `O=C(Cc1csc(N2CCNC2=O)n1)NC(c1ccccc1)C1CC1` (stereo not drawn) | 10.83 |
| `Cc1cc(NC(=O)NCC2COc3ccccc3C2)no1` (stereo not drawn) | 17.68 |
| `O=C(O)C(F)(F)F.O=C(O)C(F)(F)F.O=C(O)C(F)(F)F.[H][C@@]12CCC(=O)N(Cc3cccc(C)n3)[C@]1([H])CCN2Cc1cccnc1` | 21.89 |
| `CCCNC(=O)C1CCN(Cc2csc(C(C)(C)C)n2)CC1` | -0.2467 |
| `COc1ccc2c(=O)n(CC3CC3)ccc2c1OC` | -1.065 |
| `CNC(=O)c1ccc(C(=O)N2CCCC(n3ccnc3)C2)cn1` (stereo not drawn) | -2.602 |
| `O=C(c1ccccn1)N1CCN(c2ccc(-c3cccnc3)nn2)CC1` | 5.217 |
| `COc1ccc(CNCCc2cccc(C(N)=O)c2)cc1O` | -62.24 |
| `[H][C@@]12C[C@H](C(=O)NCc3cccnc3)[C@@]([H])(CN(CC)C1)O2` | -8 |
| `NC(=O)C1CCN(c2cncc(-n3cccn3)n2)CC1` | 11.31 |
| `Nc1nccc(C2CCN(CC3CC3)C2)n1` (stereo not drawn) | 10.99 |
| `Cc1ccnc(C2CCN(c3ccnc(C)n3)C2)n1` (stereo not drawn) | 14.74 |
| `O=C(c1cc(-n2cnnn2)ccc1Cl)N1CCC2(CC1)OCCO2` | -11.84 |
| `Cc1n[nH]c(C)c1S(=O)(=O)N1CCC(Oc2cnccn2)CC1` | -1.343 |
| `Cc1ccc(-c2cc(CNC(=O)N3CCC(CO)CC3)on2)cc1` | 34.31 & 25.02 & 31.33 |
| `Cc1ncc2c(n1)CN(CC(=O)Nc1ccc(Cl)cn1)CC2` | 26.42 |
| `[H][C@@]12CN(Cc3csc(C)n3)C[C@]1([H])OCCN2c1ncc(F)cn1` | -0.974 |
| `COc1ccc(C[C@H]2CNCC[C@@H]2OC)cc1.O=C(O)C(F)(F)F` | 1.489 |
| `CO[C@@H]1CCN(C(=O)c2ccccn2)[C@H]1Cc1ccccc1.O=C(O)C(F)(F)F` | 5.762 |
| `Cc1ccc(-c2cc(N)c(=O)n(CC(=O)NC3CCCC3)n2)s1` | 4.398 |
| `Cc1cc2nccc(C3CCCN(C(=O)c4ccccc4F)C3)n2n1` (stereo not drawn) | 11.04 |

Repeated from the top, 6 entries:

Compound	percent effect
Cc1noc(C)c1CN1CCn2c(COC(C)C)nnc2C1	0.5963
COC(=O)NCc1cc2n(n1)CCCN(C(C)=O)C2	1.767
O=C(NCc1cc[nH]n1)NCC(O)COc1cccc(F)c1 (stereo not drawn)	8.333
C[C@@H]1CN(CCc2ccccc2)C[C@]12CCN(CC(=O)N(C)C)C2=O.O=C(O)C(F)(F)F	6.918
CC(=O)N1CCC2(CC1)CC(NC(=O)N(C)C)c1cc(C)ccc12 (stereo not drawn)	2.024
CC(C)N(C)Cc1cnc2n1CCN(Cc1ccsc1)C2.O=C(O)C(F)(F)F.O=C(O)C(F)(F)F	2.059

Data taken from ChEMBL document CHEMBL3988442, “University of Dundee, Small-Polar-MMV Screening Library” (2021).